The test addresses T1, GST-BEX1 (brain-expressed X-linked protein 1 fused to glutathione-S-transferase) (UniProt Q9R224).
T1 sequence: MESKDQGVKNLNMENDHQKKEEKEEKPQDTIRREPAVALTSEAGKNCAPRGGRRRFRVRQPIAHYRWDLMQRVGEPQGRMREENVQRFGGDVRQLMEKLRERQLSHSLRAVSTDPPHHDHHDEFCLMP
Kind of test: affinity purification with mass spectrometry; GST chromatography: heart protein extracts incubated with GST-BEX1 or GST only; eluted partners on silver-stained gels, bands identified by MALDI mass spectrometry; only the target purified.

The chains behind the UniProt entries cited, without tags or fusion partners.
UniProt Q8CGC7: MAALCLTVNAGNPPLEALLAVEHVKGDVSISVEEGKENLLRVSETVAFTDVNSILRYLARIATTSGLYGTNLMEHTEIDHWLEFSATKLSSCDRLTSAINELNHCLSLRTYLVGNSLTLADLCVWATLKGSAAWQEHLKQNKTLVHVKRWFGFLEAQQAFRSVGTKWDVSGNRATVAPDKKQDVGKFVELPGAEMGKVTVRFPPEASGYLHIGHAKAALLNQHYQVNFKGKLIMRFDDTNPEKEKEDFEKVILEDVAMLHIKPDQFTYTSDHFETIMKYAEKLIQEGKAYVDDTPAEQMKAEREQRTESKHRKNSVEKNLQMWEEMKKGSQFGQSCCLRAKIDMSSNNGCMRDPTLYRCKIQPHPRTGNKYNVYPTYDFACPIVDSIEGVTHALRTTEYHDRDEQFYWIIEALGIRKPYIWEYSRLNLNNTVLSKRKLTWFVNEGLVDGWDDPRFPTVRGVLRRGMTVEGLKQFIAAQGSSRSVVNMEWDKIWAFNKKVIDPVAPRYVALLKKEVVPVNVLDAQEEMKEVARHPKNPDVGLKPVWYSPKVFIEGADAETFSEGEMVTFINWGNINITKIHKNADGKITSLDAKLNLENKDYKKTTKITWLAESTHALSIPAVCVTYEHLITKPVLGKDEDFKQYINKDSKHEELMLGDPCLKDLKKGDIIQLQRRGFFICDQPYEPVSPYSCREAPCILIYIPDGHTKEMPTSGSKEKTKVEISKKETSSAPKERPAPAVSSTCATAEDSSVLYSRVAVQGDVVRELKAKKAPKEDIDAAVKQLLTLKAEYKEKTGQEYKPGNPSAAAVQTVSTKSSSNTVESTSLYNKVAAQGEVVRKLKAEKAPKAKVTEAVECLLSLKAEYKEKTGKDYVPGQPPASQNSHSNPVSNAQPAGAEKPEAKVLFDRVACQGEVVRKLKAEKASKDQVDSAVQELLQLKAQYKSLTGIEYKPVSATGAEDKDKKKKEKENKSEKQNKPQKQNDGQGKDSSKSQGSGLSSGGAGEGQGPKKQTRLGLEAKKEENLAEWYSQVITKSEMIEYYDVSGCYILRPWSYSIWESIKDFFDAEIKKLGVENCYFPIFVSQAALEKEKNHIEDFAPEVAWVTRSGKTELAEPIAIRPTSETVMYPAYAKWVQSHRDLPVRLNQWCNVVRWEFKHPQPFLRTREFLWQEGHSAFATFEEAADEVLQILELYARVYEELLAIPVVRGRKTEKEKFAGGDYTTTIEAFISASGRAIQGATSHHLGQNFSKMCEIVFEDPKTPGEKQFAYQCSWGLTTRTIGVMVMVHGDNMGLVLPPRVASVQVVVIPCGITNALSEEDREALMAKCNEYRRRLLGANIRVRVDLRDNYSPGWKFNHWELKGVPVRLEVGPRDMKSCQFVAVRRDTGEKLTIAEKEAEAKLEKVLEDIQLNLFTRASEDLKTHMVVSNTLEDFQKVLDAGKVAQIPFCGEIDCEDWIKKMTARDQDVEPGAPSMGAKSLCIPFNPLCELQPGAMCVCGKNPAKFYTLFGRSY
UniProt P27546: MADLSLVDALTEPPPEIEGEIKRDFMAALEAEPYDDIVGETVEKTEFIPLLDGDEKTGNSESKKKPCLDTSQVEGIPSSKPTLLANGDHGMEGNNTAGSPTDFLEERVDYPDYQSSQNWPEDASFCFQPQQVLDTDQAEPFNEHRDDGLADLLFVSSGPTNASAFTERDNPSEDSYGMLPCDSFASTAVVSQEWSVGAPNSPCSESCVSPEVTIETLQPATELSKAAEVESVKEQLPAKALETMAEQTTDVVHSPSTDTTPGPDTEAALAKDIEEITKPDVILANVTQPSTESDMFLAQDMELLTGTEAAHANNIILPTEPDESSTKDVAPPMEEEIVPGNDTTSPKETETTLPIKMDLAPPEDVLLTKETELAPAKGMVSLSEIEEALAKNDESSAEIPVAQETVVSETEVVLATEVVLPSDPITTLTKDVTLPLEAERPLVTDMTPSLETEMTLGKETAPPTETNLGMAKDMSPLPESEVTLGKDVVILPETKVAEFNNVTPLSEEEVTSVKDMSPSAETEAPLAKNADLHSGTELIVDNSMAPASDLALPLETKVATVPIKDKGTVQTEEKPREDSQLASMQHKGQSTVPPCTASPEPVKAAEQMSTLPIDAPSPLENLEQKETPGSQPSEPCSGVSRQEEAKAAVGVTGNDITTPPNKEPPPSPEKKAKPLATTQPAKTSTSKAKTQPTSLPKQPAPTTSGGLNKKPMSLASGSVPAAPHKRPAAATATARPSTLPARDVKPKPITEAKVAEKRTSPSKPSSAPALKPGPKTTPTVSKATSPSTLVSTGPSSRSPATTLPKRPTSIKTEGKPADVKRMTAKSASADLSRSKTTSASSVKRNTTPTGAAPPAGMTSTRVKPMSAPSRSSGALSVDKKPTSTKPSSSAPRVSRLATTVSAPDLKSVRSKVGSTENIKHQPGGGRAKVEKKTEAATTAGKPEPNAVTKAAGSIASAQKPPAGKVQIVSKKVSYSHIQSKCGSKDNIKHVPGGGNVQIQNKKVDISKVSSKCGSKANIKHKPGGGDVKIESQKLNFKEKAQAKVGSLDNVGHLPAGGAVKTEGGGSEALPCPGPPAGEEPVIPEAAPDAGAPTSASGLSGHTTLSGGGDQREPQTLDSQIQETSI

No constants are given. Whether binding was seen depends on the method and setting. Binding seen in cells or lysates may run through a third protein. A yes stands for co-enrichment or nearness to the bait. Other partners may have been found. Where a sequence is shown, tags or fusion partners need not be part of it.

Regarding “Glutamyl-Prolyl-tRNA Synthetase (EPRS) (from UniProt Q8CGC7 1-1512)”, the binding entry is on record as “binds”.
With “Microtubule-Associated Protein 4 (MAP4) (from UniProt P27546 1-1125)”, the binding entry is “binds”.

The record behind these values is article PMC5709413.
